For one molecule, binding results are on record in patent US20170292963A1.

No constants are given. Whether binding was seen depends on the method and setting. Binding seen in cells or lysates may run through a third protein. Some binding calls cover weakened binding; strength is not graded here.

In this assay the target is T1, Mouse NPTX1 (Neuronal Pentraxin 1), native protein in mouse brain lysate or neurons (mouse) (UniProt Q62443).
T1 sequence: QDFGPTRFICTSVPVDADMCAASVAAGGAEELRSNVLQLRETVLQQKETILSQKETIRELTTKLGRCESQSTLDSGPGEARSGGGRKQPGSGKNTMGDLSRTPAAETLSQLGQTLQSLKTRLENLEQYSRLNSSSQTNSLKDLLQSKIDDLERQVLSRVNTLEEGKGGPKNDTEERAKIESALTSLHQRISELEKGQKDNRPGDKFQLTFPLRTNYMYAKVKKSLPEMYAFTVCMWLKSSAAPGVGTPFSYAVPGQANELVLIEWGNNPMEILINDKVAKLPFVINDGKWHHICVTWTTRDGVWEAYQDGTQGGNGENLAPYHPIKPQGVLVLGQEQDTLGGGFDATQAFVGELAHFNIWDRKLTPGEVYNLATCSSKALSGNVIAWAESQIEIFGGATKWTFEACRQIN
As to the kind of experiment: co-immunoprecipitation from mouse brain lysate, Western blot. (A western blot detects proteins with antibodies after separation by electrophoresis.)

B1: Mouse NPTX2 (Neuronal Pentraxin 2), native protein in mouse brain lysate (protein)
chain: AGRAQDSPIPGSRFVCTALPPEAARAGCPLPAMPMQGGALSPEEELRAAVLQLRETVVQQKETLGAQREAIRELTGKLARCEGLAGGKARGTGKDTMGDLPRDPGHVVEQLSRSLQTLKDRLESLELQLRTNVSNAGLPSDFREVLQRRLGELERQLLRKVAELEDEKSLLHNETSAHRQKTESTLNALLQRVTELERGNSAFKSPDAFKVSLPLRTNYLYGKIKKTLPELYAFTICLWLRSSASPGIGTPFSYAVPGQANEIVLIEWGNNPIELLINDKVAQLPLFVSDGKWHHICITWTTRDGMWEAFQDGEKLGTGENLAPWHPIKPGGVLILGQEQDTVGGRFDATQAFVGELSQFNIWDRVLRAQEIINIANCSTNMPGNIIPWVDNNVDVFGGASKWPVETCEERLLDL
Regarding B1, the binding entry was “binds”.
